Experimental data: PubChem BioAssay AID1671195 (Yale University, 2021)
Here is an unselected part of about 22,000 reagents tested. Over the whole deposit, about 1,510 (6.9%) were called active. 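Active includes knockdowns raising or lowering LDL uptake; positive z-scores mean more uptake, negative mean less.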

- Purpose: 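Genes whose knockdown alters LDL uptake in liver cancer cells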 (primary screen)
- System: human Huh7 hepatoma cells
- Reagents: siRNA pool against human genes, 18 nM
- Timing: about 2 to 2.5 days of knockdown, then 8 h LDL uptake
- Conditions: DiI-labelled LDL at 30 µg/ml for 8 h, in lipoprotein-deficient serum medium
- Measured: 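Per-cell DiI-LDL intensity by automated imaging; well means scaled to the plate median and given as a robust z-score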
- Direction: robust z-score: higher = more LDL uptake after knockdown
- Active means: 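a gene counts as active if at least two replicate z-scores exceed ±2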

| Target gene | robust z-score, replicate 1 | robust z-score, replicate 2 | robust z-score, replicate 3 | call |
| --- | --- | --- | --- | --- |
| IL10RA (interleukin 10 receptor subunit alpha) | -1.18 | -1.54 | -1.68 | inactive |
| SAP30BP (SAP30 binding protein) | 2.32 | 0.0782 | 1.35 | inactive |
| UBXN8 (UBX domain protein 8) | -0.797 | -1.15 | -0.865 | inactive |
| RPS21 (ribosomal protein S21) | -1.93 | -0.776 | -1.5 | inactive |
| PAPPA2 (pappalysin 2) | -0.811 | -0.733 | -0.838 | inactive |
| ZNF585A (zinc finger protein 585A) | 3.01 | 2.66 | 1.97 | active |
| RLN2 (relaxin 2) | -0.864 | -0.969 | -0.316 | inactive |
| CLCA2 (chloride channel accessory 2) | -1.07 | -1.62 | -0.966 | inactive |
| GPX8 (glutathione peroxidase 8 (putative)) | -2 | -1.67 | -1.94 | inactive |
| GLB1L2 (galactosidase beta 1 like 2) | 1.66 | 1.28 | 1.15 | inactive |
| JPH3 (junctophilin 3) | -1.5 | -1.16 | -0.608 | inactive |
| VAPB (VAMP associated protein B and C) | -0.376 | -0.619 | -0.349 | inactive |
| TMEM245 (transmembrane protein 245) | 0.256 | 0.973 | 1.89 | inactive |
| LOC389271 (retired record) | 0.512 | 0.861 | 0.867 | inactive |
| LOC145660 (retired record) | -0.437 | -0.385 | -0.636 | inactive |
| NUTF2 (nuclear transport factor 2) | 0.756 | -0.574 | -0.319 | inactive |
| EVI5 (ecotropic viral integration site 5) | -0.722 | -0.0953 | -0.144 | inactive |
| NDUFA6 (NADH:ubiquinone oxidoreductase subunit A6) | 2.51 | 0.101 | -0.497 | inactive |
| SAG (S-antigen visual arrestin) | 3.11 | 0.476 | 1.19 | inactive |
| LOC440780 (retired record) | 2.03 | 2.06 | 1.98 | active |
| PTPN14 (protein tyrosine phosphatase non-receptor type 14) | -0.992 | -1.68 | -1.12 | inactive |
| ATP2B2 (ATPase plasma membrane Ca2+ transporting 2) | 0.29 | -0.0603 | 0.37 | inactive |
| TLR9 (toll like receptor 9) | -0.581 | -1.23 | -0.901 | inactive |
| SMIM24 (small integral membrane protein 24) | 0.112 | 0.28 | -0.0488 | inactive |
| MYBPC1 (myosin binding protein C1) | 1.56 | 1.55 | 2.51 | inactive |
| CLEC4D (C-type lectin domain family 4 member D) | 0.0897 | -0.247 | 0.0115 | inactive |
| LRRFIP1 (LRR binding FLII interacting protein 1) | -0.533 | 0.289 | -0.13 | inactive |
| WDR7 (WD repeat domain 7) | 1.33 | -0.147 | 0.889 | inactive |
| ADAMTS1 (ADAM metallopeptidase with thrombospondin type 1 motif 1) | -0.186 | -0.628 | -0.0473 | inactive |
| LOC391711 (tripartite motif-containing protein 60-like) | 0.84 | 0.687 | 0.671 | inactive |
| LINC01101 (long independently transcribed non-coding RNA 1101) | -1.26 | -1.14 | -1.61 | inactive |
| LOC389369 (retired record) | -0.796 | -0.636 | -0.646 | inactive |
| LINC02167 (long independently transcribed non-coding RNA 2167) | 1.36 | 1.07 | 1.06 | inactive |
| ZNF839 (zinc finger protein 839) | -1.87 | -0.471 | 0.171 | inactive |
| NOX4P1 (NOX4 pseudogene 1) | 0.275 | 0.0582 | -0.425 | inactive |
| QPCT (glutaminyl-peptide cyclotransferase) | 1.81 | 1.76 | 1.57 | inactive |
| DNM1DN11-7 (DNM1DN11.7 duplicon) | 0.194 | -0.425 | -0.239 | inactive |
| TNFRSF10A-DT (TNFRSF10A divergent transcript) | 1.18 | 0.906 | 1.14 | inactive |
| NDUFS1 (NADH:ubiquinone oxidoreductase core subunit S1) | 0.239 | -0.783 | 0.0105 | inactive |
| SCAND2P (SCAN domain containing 2 pseudogene) | -0.978 | -1.17 | -1.35 | inactive |
| TERF2 (telomeric repeat binding factor 2) | -0.191 | 0.145 | -0.254 | inactive |
| ARL2 (ARF like GTPase 2) | 1.29 | -0.38 | 0.0995 | inactive |
| AKR1C1 (aldo-keto reductase family 1 member C1) | -1.76 | -1.92 | -2.22 | active |
| TBCK (TBC1 domain containing kinase) | -1.46 | -2.19 | -2.26 | active |
| LDLRAP1 (low density lipoprotein receptor adaptor protein 1) | -0.619 | 0.581 | -0.182 | inactive |
| SNRPE (small nuclear ribonucleoprotein polypeptide E) | -0.596 | -0.332 | -1.49 | inactive |
| ZFC3H1 (zinc finger C3H1-type containing) | -0.224 | -0.565 | 1.39 | inactive |
| LOC441569 (retired record) | 0.073 | 0.442 | -0.235 | inactive |
| LMNB2 (lamin B2) | -0.0469 | -0.401 | -1.03 | inactive |
| SH2B3 (SH2B adaptor protein 3) | 1.07 | -1.28 | -0.0355 | inactive |
| SURF6 (surfeit 6) | -1.56 | -1.57 | -1.63 | inactive |
| BPHL (biphenyl hydrolase like) | 1.31 | 1.7 | 2.79 | inactive |
| STOM (stomatin) | 1.23 | 2.32 | 1.55 | inactive |
| SOX12 (SRY-box transcription factor 12) | -1.81 | -1.3 | -1.86 | inactive |
| DNAJB2 (DnaJ heat shock protein family (Hsp40) member B2) | -0.027 | 0.477 | 0.186 | inactive |
| TCF7L2 (transcription factor 7 like 2) | -0.264 | -0.851 | -0.466 | inactive |
| STEEP1 (STING1 ER exit protein 1) | -0.24 | -0.568 | -0.228 | inactive |
| PSMG2 (proteasome assembly chaperone 2) | -1.23 | -0.919 | -1.95 | inactive |
| CHMP5 (charged multivesicular body protein 5) | -1.81 | -0.0739 | -2.15 | inactive |
| MYO1F (myosin IF) | -0.578 | -0.642 | -0.141 | inactive |
| HNRNPA1P70 (heterogeneous nuclear ribonucleoprotein A1 pseudogene 70) | 2.63 | 2.12 | 1.94 | active |
| OTUD4 (OTU deubiquitinase 4) | 0.162 | 2.18 | 0.291 | inactive |
| ACOT13 (acyl-CoA thioesterase 13) | 1.01 | 1.08 | 2.23 | inactive |
| PIP (prolactin induced protein) | 0.00667 | -0.223 | -0.753 | inactive |
| IVD (isovaleryl-CoA dehydrogenase) | 0.661 | 1.23 | 0.291 | inactive |
| NXF1 (nuclear RNA export factor 1) | -1.7 | -2.22 | -2.13 | active |
| B3GALT6 (beta-1,3-galactosyltransferase 6) | -0.577 | 0.093 | -0.606 | inactive |
| MAPRE2 (microtubule associated protein RP/EB family member 2) | -0.00343 | 0.869 | 0.777 | inactive |

Sorted by “robust z-score, replicate 3” (low to high): 11 of the entries above
| Target gene | robust z-score, replicate 1 | robust z-score, replicate 2 | robust z-score, replicate 3 | call |
| --- | --- | --- | --- | --- |
| LINC01101 (long independently transcribed non-coding RNA 1101) | -1.26 | -1.14 | -1.61 | inactive |
| LOC389369 (retired record) | -0.796 | -0.636 | -0.646 | inactive |
| NOX4P1 (NOX4 pseudogene 1) | 0.275 | 0.0582 | -0.425 | inactive |
| DNM1DN11-7 (DNM1DN11.7 duplicon) | 0.194 | -0.425 | -0.239 | inactive |
| LRRFIP1 (LRR binding FLII interacting protein 1) | -0.533 | 0.289 | -0.13 | inactive |
| ADAMTS1 (ADAM metallopeptidase with thrombospondin type 1 motif 1) | -0.186 | -0.628 | -0.0473 | inactive |
| ZNF839 (zinc finger protein 839) | -1.87 | -0.471 | 0.171 | inactive |
| LOC391711 (tripartite motif-containing protein 60-like) | 0.84 | 0.687 | 0.671 | inactive |
| WDR7 (WD repeat domain 7) | 1.33 | -0.147 | 0.889 | inactive |
| LINC02167 (long independently transcribed non-coding RNA 2167) | 1.36 | 1.07 | 1.06 | inactive |
| QPCT (glutaminyl-peptide cyclotransferase) | 1.81 | 1.76 | 1.57 | inactive |
